Data taken from publication PMC5466600.
These are yes or no findings as the source states them, for the method shown. In cells and extracts the contact can be indirect. Some entries that bind do so weakly or less than the wild type.

Biological target: T1, Epe1-8xHA (fission yeast) (UniProt O94603)
T1 sequence: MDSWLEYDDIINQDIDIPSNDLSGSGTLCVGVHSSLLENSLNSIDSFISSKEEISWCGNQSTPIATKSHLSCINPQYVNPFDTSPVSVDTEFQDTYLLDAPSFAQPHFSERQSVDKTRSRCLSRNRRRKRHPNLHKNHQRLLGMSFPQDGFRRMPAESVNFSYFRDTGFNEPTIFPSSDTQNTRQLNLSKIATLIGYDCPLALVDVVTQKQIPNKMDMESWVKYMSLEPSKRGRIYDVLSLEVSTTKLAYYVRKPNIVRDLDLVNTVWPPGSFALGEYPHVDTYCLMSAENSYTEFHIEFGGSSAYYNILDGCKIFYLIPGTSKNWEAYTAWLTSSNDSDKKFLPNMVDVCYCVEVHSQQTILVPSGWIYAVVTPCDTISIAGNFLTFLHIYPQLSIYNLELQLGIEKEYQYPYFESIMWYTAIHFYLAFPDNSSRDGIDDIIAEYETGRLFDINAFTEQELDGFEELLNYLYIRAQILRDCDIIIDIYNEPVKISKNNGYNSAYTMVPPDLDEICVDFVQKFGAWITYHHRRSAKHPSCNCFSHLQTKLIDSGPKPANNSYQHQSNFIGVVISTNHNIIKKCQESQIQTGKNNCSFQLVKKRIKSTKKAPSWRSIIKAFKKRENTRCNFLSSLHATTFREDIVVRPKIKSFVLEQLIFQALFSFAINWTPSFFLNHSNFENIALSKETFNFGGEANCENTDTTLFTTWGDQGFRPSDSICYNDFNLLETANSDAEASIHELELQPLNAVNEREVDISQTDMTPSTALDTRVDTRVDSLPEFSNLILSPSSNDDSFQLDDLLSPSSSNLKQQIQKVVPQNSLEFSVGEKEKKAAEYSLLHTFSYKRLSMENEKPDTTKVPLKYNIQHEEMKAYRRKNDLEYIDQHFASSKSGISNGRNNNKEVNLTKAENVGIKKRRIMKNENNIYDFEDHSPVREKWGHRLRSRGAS
Test: co-IP; lysate of fission yeast cells grown 10 h in YES; anti-HA antibody then protein A/G PLUS-agarose beads for 6 h; washed with lysis buffer; Western blot of phosphorylated Ssp2

B1: phosphorylated Ssp2 (AMPK alpha subunit) (protein, UniProt O74536 1-576)
chain: MQPQEVDLMENSTMRNGARVLPPEAISKRHIGPYIIRETLGEGSFGKVKLATHYKTQQKVALKFISRQLLKKSDMHMRVEREISYLKLLRHPHIIKLYDVITTPTDIVMVIEYAGGELFDYIVEKKRMTEDEGRRFFQQIICAIEYCHRHKIVHRDLKPENLLLDDNLNVKIADFGLSNIMTDGNFLKTSCGSPNYAAPEVINGKLYAGPEVDVWSCGIVLYVMLVGRLPFDDEFIPNLFKKVNSCVYVMPDFLSPGAQSLIRRMIVADPMQRITIQEIRRDPWFNVNLPDYLRPMEEVQGSYADSRIVSKLGEAMGFSEDYIVEALRSDENNEVKEAYNLLHENQVIQEKSHLSKSKRVDSFLSVSPPAFSEYTSELQKKSKQELIDPTLEGPRWTVSDPPTYAKQTIDSNICVLVPTAEKNKLEMRTLADAASAVDTSQSTRKKSRRNKWHFGVRCRGDAPEILLAVYRALQRAGAQFTVPKPVNGKYRSDMYTIKSRWEIPHCKREGKNTYAYIELQLYEVMPGCFMLDVKSNGYKDIYSHPERTADHGMDDLKSSFPFLDLCAMLVCKLFSA
modifications: phosphothreonine at 189
With B1 as the binder, how does the binding read?
Its binding is “binds”.
